Experimental data reported in patent US8114846B2, “Combined treatment with an EGFR kinase inhibitor and an agent that sensitizes tumor cells to the effects of EGFR kinase inhibitors” (OSI Pharmaceuticals, LLC, priority 2006, dated 2012).
“Also recorded” adds a separate entry of the source. For at least one compound, name, drawing or mass did not settle the structure.

Columns and labels:
[1] = tested on: Calu-6 NSCLC tumor cells; assay: Calu6 xenograft model; type: in vivo, mice; settings: day 19; Tarceva 100 mg/kg daily oral, or rapamycin 4 mg/kg i.p. day 1, 8, 15
Description: Female CD-1 nu/nu mice (Charles River Laboratories, Wilmington, Mass.) were implanted with harvested Calu-6 NSCLC tumor cells in a single subcutaneous site on the flank of the mice in the axillary region. Tumors were allowed to grow to 200+50 mm^3, at which time the animals were sorted into treatment groups (see below) of 8 animals per group, having approximately equal body weight (+/−1 g) within a group, and tattooed on the tail for permanent identification. Tumor volumes and body weights were determined twice weekly. The tumor volume was determined by measuring in two directions with vernier calipers and calculated using the formula: Tumor volume=(length×width^2)/2. The data were plotted as the % change in mean values of tumor volume and body weight for each group. The tumor growth inhibition (% TGI) was determined as % TGI=100(1−Wt/Wc): where Wt is the median tumor volume of the treated group at time x and We is the median tumor volume of the control group at time x. Tarceva was dosed in a 6% Captisol (CyDex, Inc) in WFI (Water for Injection) solution and all control animals were dosed with an equal volume of the vehicle. Tarceva animals were dosed by oral gavage once a day for 18 days and the % TGI measured on day 19. Rapamycin was dosed in 4% ethanol/5% PEG400/5% Tween 80 in WFI. […]

[2] = tested on: BxPC3 cells; assay: Cell proliferation (Cell Titer Glo), BxPC3; type: cell-based, human; settings: low doses of rapamycin (30 nM, 72 hours, FIG. 3A)
Method: (§1) The cell lines H460, Calu6, SW1573, H1703, H292, H358, HCT-116, HT-29, FET, GEO, SW480, Colo205 CBS, BxPC3, HPAC, CFPAC, MiaPaca-2, Panc1, MDA-MB-468, BT-20, MDA-MB-435 H441, H322, A1165, Igrov-1, Ovcar-3, CA-OV-3, MDAH2774, SW626, SKOV-3, Cal-27, RPMI 2650, and MDA-MB-231 were grown in media as prescribed by the ATCC, containing 10% FCS. Hsc-2, Hsc-4 and OVK-18 were obtained from the Riken Cell Bank and were cultured according to the Riken Cell Bank recommended conditions.

[3] = tested on: H292 cells; assay: Cell proliferation (Cell Titer Glo), H292; type: cell-based, human; settings: low doses of rapamycin (30 nM, 72 hours, FIG. 3A)
Method: as §1

## CO[C@H]1C[C@@H]2CC[C@@H](C)[C@@](O)(O2)C(=O)C(=O)N2CCCC[C@H]2C(=O)O[C@H]([C@H](C)C[C@@H]2CC[C@@H](O)[C@H](OC)C2)CC(=O)[C@H](C)/C=C(\C)[C@@H](O)[C@@H](OC)C(=O)[C@H](C)C[C@H](C)/C=C/C=C/C=C/1C [rapamycin]
[1]
  reduction in tumor growth as single agent: no statistically significant reduction; also recorded: Neither rapamycin or erlotinib showed significant reduction
[2]
  growth inhibition by rapamycin alone: some growth inhibition
[3]
  growth inhibition by rapamycin alone: some growth inhibition
